Part of at least one peptide drawing is inferred or uncertain, most often the ends.
Assay: Secondary structure by UV circular dichroism
Type: physicochemical
Conditions: 50 µg/ml peptide, 10 mM TRIS-HCl buffer pH 7,5, room temperature, 190-240 nm; evaluated after Reed and Kinzel

SMILES	α-Helix-Anteil
CC[C@H](C)[C@H](NC(=O)[C@H](CCC(=O)O)NC(=O)[C@H](CO)NC(=O)[C@@H](NC(=O)[C@@H](N)CO)C(C)C)C(=O)N[C@@H](CCC(N)=O)C(=O)N[C@@H](CC(C)C)C(=O)N[C@@H](CCSC)C(=O)N[C@@H](Cc1c[nH]cn1)C(=O)N[C@@H](CC(N)=O)C(=O)N[C@@H](CC(C)C)C(=O)NCC(=O)N[C@@H](CCCCN)C(=O)N[C@@H](Cc1c[nH]cn1)C(=O)N[C@@H](CC(C)C)C(=O)N[C@@H](CC(N)=O)C(=O)N[C@@H](CO)C(=O)N[C@@H](CCSC)C(=O)N[C@@H](CCC(=O)O)C(=O)N[C@@H](CCCNC(=N)N)C(=O)N[C@H](C(=O)N[C@@H](CCC(=O)O)C(=O)N[C@@H](Cc1c[nH]c2ccccc12)C(=O)N[C@@H](CC(C)C)C(=O)N[C@@H](CCCNC(=N)N)C(=O)N[C@@H](CCCCN)C(=O)N[C@@H](CCCCN)C(=O)N[C@@H](CC(C)C)C(=O)N[C@@H](CCC(N)=O)C(=O)N[C@@H](CC(=O)O)C(=O)N[C@H](C(=O)N[C@@H](Cc1c[nH]cn1)C(=O)N[C@@H](CC(N)=O)C(=O)O)C(C)C)C(C)C [hPTH-(1-33)]	ähnlich niedrig wie beim hPTH- (1-38)
CC[C@H](C)[C@H](NC(=O)[C@H](CCC(=O)O)NC(=O)[C@H](CO)NC(=O)[C@@H](NC(=O)[C@@H](N)CO)C(C)C)C(=O)N[C@@H](CCC(N)=O)C(=O)N[C@@H](CC(C)C)C(=O)N[C@@H](CCSC)C(=O)N[C@@H](Cc1c[nH]cn1)C(=O)N[C@@H](CC(N)=O)C(=O)N[C@@H](CC(C)C)C(=O)NCC(=O)N[C@@H](CCCCN)C(=O)N[C@@H](Cc1c[nH]cn1)C(=O)N[C@@H](CC(C)C)C(=O)N[C@@H](CC(N)=O)C(=O)N[C@@H](CO)C(=O)N[C@@H](CCSC)C(=O)N[C@@H](CCC(=O)O)C(=O)N[C@@H](CCCNC(=N)N)C(=O)N[C@H](C(=O)N[C@@H](CCC(=O)O)C(=O)N[C@@H](Cc1c[nH]c2ccccc12)C(=O)N[C@@H](CC(C)C)C(=O)N[C@@H](CCCNC(=N)N)C(=O)N[C@@H](CCCCN)C(=O)N[C@@H](CCCCN)C(=O)N[C@@H](CC(C)C)C(=O)N[C@@H](CCC(N)=O)C(=O)N[C@@H](CC(=O)O)C(=O)N[C@H](C(=O)N[C@@H](Cc1c[nH]cn1)C(=O)N[C@@H](CC(N)=O)C(=O)N[C@@H](Cc1ccccc1)C(=O)N[C@H](C(=O)N[C@@H](C)C(=O)N[C@@H](CC(C)C)C(=O)NCC(=O)O)C(C)C)C(C)C)C(C)C [hPTH-(1-38)]	~27%

From EP0497915B1, “hPTH (1-37) FRAGMENT, ITS PRODUCTION, DRUG CONTAINING IT AND ITS USE” (HaemoPep Pharma GmbH, priority 1989, dated 1991)
